Reference: PubChem BioAssay AID2551 (National Center for Advancing Translational Sciences (NCATS), 2010)
Screen size: about 310,000 compounds; about 17,000 (5.5%) were called active. Inconclusive results, whose numbers are uncertain, are shown with a selection of clear calls. Calls come from the whole dose curve; as a rule, active = well fitted inhibition curve with a large enough effect; inconclusive = small, poorly fitted or top-dose-only effect, or effect the other way; inactive = no such curve, though single readings can be large or run the other way. A potency beside an inconclusive call is a rough fit, not a confirmed value.

Amino acid sequences for entries named in this document (tags omitted). A change or cut given only in a name is not applied to a line headed by its entry.
UniProt P51450: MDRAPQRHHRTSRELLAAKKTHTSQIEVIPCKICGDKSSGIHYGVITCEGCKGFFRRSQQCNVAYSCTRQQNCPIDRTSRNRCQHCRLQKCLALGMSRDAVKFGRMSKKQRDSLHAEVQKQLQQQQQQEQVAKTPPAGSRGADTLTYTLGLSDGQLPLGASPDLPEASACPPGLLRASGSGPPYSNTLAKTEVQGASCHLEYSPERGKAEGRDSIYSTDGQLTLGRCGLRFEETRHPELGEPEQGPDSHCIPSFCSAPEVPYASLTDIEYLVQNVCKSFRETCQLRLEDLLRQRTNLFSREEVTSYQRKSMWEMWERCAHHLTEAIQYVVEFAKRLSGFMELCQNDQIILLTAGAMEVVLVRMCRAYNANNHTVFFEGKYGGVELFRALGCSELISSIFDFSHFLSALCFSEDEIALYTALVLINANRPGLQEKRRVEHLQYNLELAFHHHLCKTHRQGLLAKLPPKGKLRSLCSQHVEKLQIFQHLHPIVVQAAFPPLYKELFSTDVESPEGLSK

Target: Nuclear receptor ROR-gamma (Mus musculus) (UniProt P51450)
Test: qHTS for inhibitors of ROR gamma transcriptional activity; note: nearly all actives have a fitted effect of over 60% in size
Settings: Drosophila S2 Gal4-RORgamma UAS-luciferase reporter, 20 h; series mostly up to 53.6 µM
Summary of the method: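 Using a luciferase readout, inhibitors were identified by reduced reporter activity in Drosophila cells coexpressing a copper-inducible Gal4–ROR gamma fusion and UAS-driven Photinus luciferase, incubated 20 hr after 700 uM copper sulfate.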
Potency is the fitted concentration of half-maximal effect.

Potency, inactive:
COC(=O)c1nnn(-c2nonc2N)c1COc1ccc(C=O)cc1OC
Nc1nc(NCC2CCCO2)nc(NCC2CCCO2)c1[N+](=O)[O-] (configuration not stated)
CCOc1ccccc1-c1nc(CN2CCN(C(=O)c3ccco3)CC2)c(C)o1
COc1ccc(-n2cnnc2SCC(=O)Nc2ccccc2F)cc1
N#Cc1cc2c(=O)n3ccccc3nc2n(CCCn2ccnc2)c1=N
O=C(COC(=O)CNS(=O)(=O)c1ccccc1)Nc1ccc(Cl)cn1
O=S(=O)(c1ccccc1)N1CCC2(CC1)CN(Cc1ccccc1)C2
Cc1nc(NC(=O)CSc2nccn2C)sc1C(=O)N(C)C
NS(=O)(=O)c1ccc(-n2nncc2-c2ccco2)cc1
COCCN(Cc1ccco1)C(=O)C1CCCN(c2ncnc3c2nc2n3CCCCC2)C1 (configuration not stated)
COc1ccc(NC(=O)Cn2nnc(C(=O)NCc3cccs3)c2N)cc1OC
Cn1cc(C=C2C(=O)Nc3cccnc32)c2ccccc21
CCCOC(=O)c1ccc(Oc2cn[nH]c2-c2ccc(OCC(=O)NN)cc2O)cc1
COc1cc2nc(SCC(=O)NCCc3ccccc3)n(Cc3ccco3)c(=O)c2cc1OC
CC1(C)N=C(SCC(=O)Nc2ccc(Cl)cc2Cl)C(c2ccccc2)=N1

Potency, active:
CC1(C)OC2CC3C4CCC5=CC(=O)CCC5(C)C4(F)C(O)CC3(C)[C@]2(C(=O)CCl)O1 (some centres not stated) 10 µM
C/C(=N\NC(=O)c1ccncc1)c1cccc(NC(=O)c2ccc(C(C)(C)C)cc2)c1 4.47 µM
COc1cccc(NC(=S)NCc2ccco2)c1 11.2 µM
O=C(NC(=S)Nc1ccc(N2CCOCC2)cc1)c1cccc([N+](=O)[O-])c1 2.24 µM
CC(C)(C)NC(=O)C(=O)NNC(=O)c1ccc(C(C)(C)C)cc1 8.91 µM
FC(F)(F)c1ccccc1-n1c(-c2cnccn2)n[nH]c1=S 11.2 µM
C/C(=N\NC(=S)NCc1ccccc1)c1ccc(Br)cc1 0.282 µM
O=C1CC(Sc2ncccn2)C(=O)N1c1ccccc1C(F)(F)F (configuration not stated) 4.47 µM
CC(NC(=S)NCCCN1CCOCC1)C12CC3CC(CC(C3)C1)C2 (configuration not stated) 10 µM
Oc1ccccc1-c1cc(-c2ccccc2Cl)[nH]n1 4.47 µM
O=C(Cn1nnc(-c2ccccc2)n1)N/N=C/c1cccc([N+](=O)[O-])c1O 1.78 µM
COc1cccc(CNC(=S)Nc2ccc(Cl)cc2C)c1 6.31 µM
Cn1cnc([N+](=O)[O-])c1S(=O)(=O)c1ccc(Cl)cc1 3.55 µM
CCN(CC)S(=O)(=O)c1ccc2[nH]cc(C(=O)NCCC3=CCCCC3)c(=O)c2c1 10 µM
CC1CCCCC1NC(=O)/C(C#N)=C/C=C/c1ccccc1[N+](=O)[O-] (configuration not stated) 8.91 µM

An excerpt of the results above:
Potency, active:
CC(C)(C)NC(=O)C(=O)NNC(=O)c1ccc(C(C)(C)C)cc1 8.91 µM
FC(F)(F)c1ccccc1-n1c(-c2cnccn2)n[nH]c1=S 11.2 µM
C/C(=N\NC(=S)NCc1ccccc1)c1ccc(Br)cc1 0.282 µM
O=C1CC(Sc2ncccn2)C(=O)N1c1ccccc1C(F)(F)F (configuration not stated) 4.47 µM
CC(NC(=S)NCCCN1CCOCC1)C12CC3CC(CC(C3)C1)C2 (configuration not stated) 10 µM
Oc1ccccc1-c1cc(-c2ccccc2Cl)[nH]n1 4.47 µM

Following part:

Potency, inconclusive:
COc1ccc(NC(=O)c2cc3c(Cl)nc4ccccc4c3s2)cc1OC 35.5 µM [activator, single point]
COCCCNc1nc(N)c([N+](=O)[O-])c(NC2CCCCC2)n1 0.316 µM [activator, full curve]
CCOc1ccc(NC(=O)CCN2CCN(S(=O)(=O)c3cc(Cl)ccc3OC)CC2)cc1 2.82 µM [activator, partial curve]
O=C(CSc1ncnc2c1oc1ccccc12)Nc1nc2ccccc2s1 22.4 µM [inhibitor, single point]
CC(=O)Nc1ccccc1C(=O)N1CCc2ccccc21 0.126 µM [inhibitor, full curve, poor fit]
CCn1ncc(CNC(=O)C2(C)CC2(Cl)Cl)c1C (configuration not stated) 0.708 µM [activator, single point]
CC(C)(C)c1ccc(/C=C/C(=O)Nc2ccncc2)cc1 31.6 µM [inhibitor, single point]
CC(=O)c1ccc(NC(=S)NC(=O)Cc2ccc(Cl)cc2)cc1 17.8 µM [inhibitor, partial curve, poor fit]
Cc1ccc(C(=O)Nc2ncc(Cc3ccc(F)cc3)s2)o1 20 µM [inhibitor, single point]
O=C(Cc1ccc(-n2c(=O)c3ccccc3n(Cc3cccc([N+](=O)[O-])c3)c2=O)cc1)NCC1CCCO1 (configuration not stated) 2 µM [activator, full curve, poor fit]
Fc1ccc(-n2c(Cc3ccccc3)nnc2SCc2nc(-c3cccs3)no2)cc1 0.355 µM [inhibitor, partial curve, poor fit]
CCCCc1c(C)c2ccc(OCC(C)=O)cc2oc1=O 4.47 µM [activator, partial curve, poor fit]
O=C1CC(N2CCC(c3nc4ccccc4o3)CC2)C(=O)N1c1ccc(Cl)c(C(F)(F)F)c1 (configuration not stated) 11.2 µM [activator, single point]
Cc1cc(C(=O)Nc2cccc([N+](=O)[O-])c2C)cs1 35.5 µM [activator, single point]
CCOC(=O)c1c(NC(=O)CSc2nnc3ccccn23)sc2c1CCC2 7.08 µM [activator, full curve, poor fit]
COc1ccc(C2=C/C(=C\c3ccc(OC(C)=O)cc3)C(=O)O2)cc1 3.55 µM [inhibitor, partial curve]
O=C(Nc1ccc2c(c1)C(=O)N(C1CCCCC1)C2=O)C1CCCO1 (configuration not stated) 35.5 µM [activator, single point]
CC(=O)OCC1=C(C(=O)O)N2C(=O)C(NC(=O)c3ccc(F)cc3)C2SC1 (configuration not stated) 35.5 µM [inhibitor, single point]
Cc1ccc(OCCSc2nc(N)cc(N)n2)cc1 17.8 µM [activator, partial curve, poor fit]
CC(C)(C)c1ccc(NC(=O)c2c(F)cccc2Cl)cc1 11.2 µM [activator, partial curve]
CCc1cc(/C(Cc2ccc3ccccc3n2)=N\O)c(O)cc1O 14.1 µM [inhibitor, single point]
Clc1ccc2nc3ccccn3c2c1 35.5 µM [inhibitor, single point]
Cc1ccc(-c2cc(-c3ccccc3Cl)c(C#N)c(N)n2)o1 35.5 µM [inhibitor, single point]
COc1ccc(C(CC(=O)Nc2ccc(Cl)cc2F)NC(=O)C(F)(F)F)cc1 (configuration not stated) 12.6 µM [inhibitor, single point]
CCCCC(=O)Nc1ccc(Br)cc1C(=O)O 22.4 µM [inhibitor, single point]
CC1=NOC(=O)/C1=C/c1ccc(O)c(Br)c1 35.5 µM [inhibitor, single point]
COc1ccc(NS(=O)(=O)c2ccc(NC(=O)c3ccccc3Br)cc2)nn1 11.2 µM [activator, single point]
Cn1c(SCC2CCCCC2)nnc1-c1ccncc1 5.62 µM [activator, partial curve]
CCOC(=O)N1CCN(C(=O)c2oc3ccc(S(=O)(=O)N4CCCCC4)cc3c2C)CC1 17.8 µM [activator, single point]
Cc1onc(-c2ccc(Cl)cc2)c1-c1ccnn1S(=O)(=O)c1ccc(Cl)cc1 14.1 µM [activator, single point]
COC(=O)c1cc(C(=O)c2ccc(Cl)cc2Cl)cn1C 12.6 µM [activator, single point]
C/C(CC(=O)NC1CCCC1)=N\NC(=O)c1ccc([N+](=O)[O-])c(Cl)c1 12.6 µM [inhibitor, single point]
COc1ccc(NC(=O)CSc2nc3c(c(=O)[nH]2)CCC3)cc1OC 3.98 µM [activator, full curve, poor fit]
COc1ccc(N(C)C(=O)CCC(=O)Nc2ccc3nc(N4CCOCC4)cc(C)c3c2)c(OC)c1 2.24 µM [activator, single point]
Cc1cc(C(=O)NC2CC(C)(C)Cc3c2cnn3-c2ccc(F)cc2)no1 (configuration not stated) 10 µM [activator, partial curve]
Cc1ccc(CS(=O)(=O)c2ncc(Cl)c(C(=O)Nc3nnc(C(C)C)s3)n2)cc1 35.5 µM [inhibitor, single point]
CC(C)(C)c1cc(NC(=O)c2ccc(OC3CCCC3)cc2)no1 25.1 µM [inhibitor, single point]
Cc1ccc(CN(C#N)c2nc(C)cc(C)n2)cc1 35.5 µM [activator, single point]
Cc1cc(C(=O)Nc2cccc(NC(=O)c3ccco3)c2)ccc1[N+](=O)[O-] 15.8 µM [activator, single point]
C=CCn1c(O)c(N=NC(=O)c2ccccc2NS(=O)(=O)c2cccs2)c2ccccc21 5.01 µM [activator, single point]
Cc1ccc(C(=O)NCCc2nnc3ccc(NCCCN4CCOCC4)nn23)cc1 35.5 µM [inhibitor, single point]
c1cn2cc(-c3ccc4c(c3)OCO4)nc2s1 22.4 µM [inhibitor, single point]
